{"sequences": {"note": "Amino acid sequences for entries named in this document (tags omitted). A change or cut given only in a name is not applied to a line headed by its entry.", "UniProt Q9UBF8": "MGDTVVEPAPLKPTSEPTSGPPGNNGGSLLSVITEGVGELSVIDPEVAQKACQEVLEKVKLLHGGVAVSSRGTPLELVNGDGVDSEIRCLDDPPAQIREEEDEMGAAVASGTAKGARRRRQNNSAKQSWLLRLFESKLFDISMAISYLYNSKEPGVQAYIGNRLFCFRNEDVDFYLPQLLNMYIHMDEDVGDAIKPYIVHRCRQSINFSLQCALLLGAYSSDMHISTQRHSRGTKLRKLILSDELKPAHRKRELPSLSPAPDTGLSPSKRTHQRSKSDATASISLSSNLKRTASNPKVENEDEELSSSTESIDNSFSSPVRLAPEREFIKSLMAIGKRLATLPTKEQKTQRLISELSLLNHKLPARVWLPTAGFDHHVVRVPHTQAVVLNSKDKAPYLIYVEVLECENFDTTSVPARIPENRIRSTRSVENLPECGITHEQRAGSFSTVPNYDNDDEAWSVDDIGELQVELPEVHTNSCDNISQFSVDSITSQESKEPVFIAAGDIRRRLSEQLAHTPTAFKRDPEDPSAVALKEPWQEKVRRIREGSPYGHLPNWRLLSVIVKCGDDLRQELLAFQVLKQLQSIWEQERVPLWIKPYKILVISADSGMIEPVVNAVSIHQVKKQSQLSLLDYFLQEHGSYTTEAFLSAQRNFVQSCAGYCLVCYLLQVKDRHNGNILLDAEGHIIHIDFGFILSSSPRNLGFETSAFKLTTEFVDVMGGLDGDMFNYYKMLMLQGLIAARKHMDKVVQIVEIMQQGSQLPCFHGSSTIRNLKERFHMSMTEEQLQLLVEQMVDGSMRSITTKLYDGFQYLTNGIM"}, "source": "the supplement of paper PMC12823440", "about": "“Inhibitors supercharge kinase turnover through native proteolytic circuits” (Nature, 2025)", "note": "Structures can show the parent of a compound that is named as a salt. The list shows a part of the results. The calls rarely recur for the same compound in another form.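 In K562 cells expressing nanoluciferase-fused kinases, luminescence was recorded at 4 h intervals between 2 and 18 h, normalized as percent of control with DMSO at 100% and a positive control at 0%. A significant (2 sigma) signal drop marks a time point as decreased. The authors' rule for a hit is not shown and takes in more than the number of time points.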"}
{"biological_target": "PIK4CB (UniProt Q9UBF8)", "assay": "number of time points (of 5) at which kinase-Nluc abundance scored as decreased, DMSO-normalised (count); higher = more persistent destabilization", "conditions": "K562; 2-18 h"}
{"smiles": "C[C@H]1CC[C@]2(NC1)O[C@H]1C[C@H]3[C@@H]4CC[C@H]5C[C@@H](O[C@@H]6O[C@H](CO)[C@H](O[C@@H]7O[C@H](CO)[C@@H](O)[C@H](O[C@@H]8OC[C@@H](O)[C@H](O)[C@H]8O)[C@H]7O[C@@H]7O[C@H](CO)[C@@H](O)[C@H](O)[C@H]7O)[C@H](O)[C@H]6O)CC[C@]5(C)[C@H]4CC[C@]3(C)[C@H]1[C@@H]2C", "note": "[Tomatine] (2.5 µM)", "number of time points": 0}
{"smiles": "CCCCNc1nc(N)c2[nH]c(=O)n(Cc3ccc(C)nc3)c2n1", "note": "(10 µM)", "number of time points": 0}
{"smiles": "C[C@H](CCC(=O)O)C[C@H](C)C[C@H](C)C(=O)/C=C(\\O)[C@H](C)C[C@H](C)C/C=C/[C@@H](C)[C@@H](O)[C@@H](C)[C@@H](O)C[C@@H]1CC[C@@](C)([C@H]2CC[C@@](C)([C@@H](C)O)O2)O1", "note": "[Ionomycin (calcium)] (2.5 µM)", "number of time points": 0}
{"smiles": "CCOC(=O)c1c(/C(C#N)=C\\N)c2ccc(Cl)c(Cl)c2n1C", "note": "(10 µM)", "number of time points": 0}
{"smiles": "CC(=O)OC(C)(C)/C=C/C(=O)[C@](C)(O)[C@H]1[C@H](O)C[C@@]2(C)[C@@H]3CC=C4[C@@H](C=C(O)C(=O)C4(C)C)[C@]3(C)C(=O)C[C@]12C", "note": "[Cucurbitacin E] (2.5 µM)", "number of time points": 2}
{"smiles": "O=C1C=CC[C@@H]2[C@H]3CCCN4CCC[C@@H](CN12)[C@@H]34", "note": "[Sophocarpine (monohydrate)] (2.5 µM)", "number of time points": 0}
{"smiles": "C=CC(=O)Nc1ccc2[nH]c(=O)n(C3CCN(Cc4ccc(-c5nc6cc[nH]c(=O)c6cc5-c5ccccc5)cc4)CC3)c2c1", "note": "[Borussertib] (10 µM)", "number of time points": 0}
{"smiles": "O=C1C=CC[C@@H]2[C@H]3CCCN4CCC[C@@H](CN12)[C@@H]34", "note": "[Sophocarpine] (10 µM)", "number of time points": 0}
{"smiles": "C=CC(=O)N[C@H]1C=C(C)c2c(-c3cnc4ccccc4c3)c3c(N)ncnc3n2C1", "note": "(10 µM)", "number of time points": 0}
{"smiles": "Cn1cc(C2=C(c3cn(C4CCN(Cc5ccccn5)CC4)c4ccccc34)C(=O)NC2=O)c2ccccc21", "note": "[Enzastaurin] (10 µM)", "number of time points": 0}
{"smiles": "CCN1CCN(C(=O)Cc2ccc(Nc3ncc(F)c(Nc4ccc(C(=O)Nc5ccccc5Cl)cc4)n3)cc2)CC1", "note": "(2.5 µM)", "number of time points": 0}
{"smiles": "C[C@H]1CC[C@]2(NC1)O[C@H]1C[C@H]3[C@@H]4CC[C@H]5C[C@@H](O)CC[C@]5(C)[C@H]4CC[C@]3(C)[C@H]1[C@@H]2C", "note": "[Tomatidine (hydrochloride)] (10 µM)", "number of time points": 0}
{"smiles": "O=[N+]([O-])/C=C/c1ccc2c(c1)OCO2", "note": "(2.5 µM)", "number of time points": 0}
{"smiles": "NCCc1cn(S(=O)(=O)c2c(Cl)nc3sccn23)c2ccccc12", "note": "(10 µM)", "number of time points": 0}
{"smiles": "COc1ccc(N(C(=O)Oc2c(C)cccc2C)c2ccnc(Nc3ccc(N4CCN(C)CC4)cc3)n2)c(OC)c1", "note": "(2.5 µM)", "number of time points": 0}
{"smiles": "Cc1ccccc1-n1c(Cn2cnc3c(N)ncnc32)nc2cccc(C)c2c1=O", "note": "(10 µM)", "number of time points": 0}
{"smiles": "Cc1[nH]ncc1-c1cc2nc([C@H]3CC4CCN3CC4)[nH]c(=O)c2s1", "note": "[(R)-Simurosertib] (10 µM)", "number of time points": 0}
{"smiles": "CC1C(=O)OC2C(O)C34C5OC(=O)C3(OC3OC(=O)C(O)C34C(C(C)(C)C)C5O)C12O", "note": "(stereo not given) [Ginkgolide C] (10 µM)", "number of time points": 0}
{"smiles": "O=C(/C=C/c1ccccc1)OC[C@H]1O[C@@H](O[C@@H]2OC=C[C@H]3[C@H](O)[C@@H]4O[C@]4(CO)[C@@H]23)[C@H](O)[C@@H](O)[C@@H]1O", "note": "[Picroside I] (10 µM)", "number of time points": 0}
{"smiles": "CC1=C[C@]23C(=O)[C@@H](C=C(CO)[C@@H](O)[C@]2(O)[C@H]1O)[C@H]1[C@@H](C[C@H]3C)C1(C)C", "note": "[Ingenol] (10 µM)", "number of time points": 0}
{"smiles": "O=Cc1cn(Cc2ccc(Cl)cc2)c2ccccc12", "note": "[Oncrasin-1] (10 µM)", "number of time points": 0}
{"smiles": "C[C@@H]1CC[C@H]2[C@@H](C)C(=O)O[C@@H]3O[C@@]4(C)CC[C@@H]1[C@]32OO4", "note": "[Artemisinin] (10 µM)", "number of time points": 0}
{"smiles": "C[C@H](Nc1ncnc2[nH]cnc12)c1nc2ccc(F)cc2c(=O)n1-c1ccccc1", "note": "[Acalisib] (10 µM)", "number of time points": 0}
{"smiles": "O=C1c2ccccc2C(=O)c2c1cccc2-c1cnn(C2CCNCC2)c1", "note": "[PDK4-IN-1 (hydrochloride)] (10 µM)", "number of time points": 0}
{"smiles": "Cc1ccccc1-n1c(Cn2ncc3c(N)ncnc32)nc2cccc(C)c2c1=O", "note": "(10 µM)", "number of time points": 0}
